# Laboratory results: article PMC12180984
# Amino acid sequences for entries named in this document (tags omitted). A change or cut given only in a name is not applied to a line headed by its entry.
# UniProt Q08857: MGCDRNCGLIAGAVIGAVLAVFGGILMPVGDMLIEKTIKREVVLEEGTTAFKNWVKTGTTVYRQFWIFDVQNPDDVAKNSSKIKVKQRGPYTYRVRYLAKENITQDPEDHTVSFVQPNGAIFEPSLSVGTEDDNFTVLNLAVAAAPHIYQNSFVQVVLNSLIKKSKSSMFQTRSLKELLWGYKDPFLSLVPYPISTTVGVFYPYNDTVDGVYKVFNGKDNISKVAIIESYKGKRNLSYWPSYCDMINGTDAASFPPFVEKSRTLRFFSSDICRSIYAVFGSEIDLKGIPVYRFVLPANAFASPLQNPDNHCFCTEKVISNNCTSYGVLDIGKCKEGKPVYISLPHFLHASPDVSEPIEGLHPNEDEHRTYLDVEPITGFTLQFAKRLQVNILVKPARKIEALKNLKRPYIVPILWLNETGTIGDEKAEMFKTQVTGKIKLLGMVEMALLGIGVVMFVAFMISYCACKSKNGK
# Results are given in words; binding and its absence hold for the method and conditions named. Binding can be weak; no strength is given. Where a sequence is shown, tags or fusion partners need not be part of it.
# B1: HA-ASM, recombinant ASMase made in BL21 cells (enzyme, UniProt Q04519 45-627)
# chain: LFDSTVLWVPARAYPLPSEGHSVKFSAIAPPLQSAFGWQNLTCPACKVLFTALNHGLKKEPNVARVGSVAIKICKMLNIAPLDVCQSAVHLFEDDVVEVWTRSVLSPSEACGLLLGSSCGHWDIFSTWNISLPSVPKPPPKPPSPPAPGAPVSRVLFLTDLHWDHEYLEGTDPYCADPLCCRRGSGWPPNSQKGAGFWGEYSKCDLPLRTLESLLKGLGPAGPFEMVYWTGDIPAHDVWQQSRQDQLRALTTITDLVRKFLGPVPVYPAVGNHESTPVNGFPPPFIKGNQSSQWLYEAMAKAWEPWLPADALHTLRIGGFYALTPRPGLRLISLNMNFCSRENFWLLINSTDPAGQLQWLVEELQAAENRGDKVHIIGHIPPGHCLKSWSWNYYKIIARYENTLAGQFFGHTHVDEFEIFYDEETLSRPLAVAFLAPSATTFINLNPGYRVYQIDGNYPGSSHVVLDHETYILNLTQANAAGGTPSWKRLYRARETYGLPDAMPASWHNLVYRMRDDEQLFQTFWFLYHKGHPPSEPCGTPCRLATLCAQLSARADSPALCRHLMPNGSLPDANRLWSRPLLC
# Biological target: Glutathione S-transferase (GST)-fused CD36 protein (UniProt Q08857)
# Assay: pull-down; purified GST-CD36 on GST resin incubated with purified HA-ASM (Flag-ASM in the methods) for 12 h at 4 C in 50 mM Tris-HCl, 200 mM NaCl, 1 mM EDTA, 1% NP-40, 1 mM DTT, 10 mM MgCl2, pH 8.0; immunoblot; both purified
binder,measurement,value
B1,binding,binds
